Values quoted from earlier work, collected in patent publication US20100040669A1, “Non-Invasive Ocular Delivery of Rapamycin” (priority 2008, published 2010).

Settings: in water; stated as "on the order of about"

water solubility: about 2.8 μM
Compound: CO[C@H]1C[C@@H]2CC[C@@H](C)[C@@](O)(O2)C(=O)C(=O)N2CCCC[C@H]2C(=O)O[C@H]([C@H](C)C[C@@H]2CC[C@@H](O)[C@H](OC)C2)CC(=O)[C@H](C)/C=C(\C)[C@@H](O)[C@@H](OC)C(=O)[C@H](C)C[C@H](C)/C=C/C=C/C=C/1C [rapamycin]
